Experimental data: the supplement of paper PMC6078165
Values are relative to the signal before dosing, not to a vehicle control; the signal also falls without drug.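 Cells used are triple-negative breast cancer lines, either basal-like or mesenchymal-like, grown in the absence of fibroblasts. Lower red signal means mitochondrial integrity is lost, a surrogate for apoptosis.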

Experiments:
Experiment in all cases: relative JC-1 red fluorescence (viability) vs pre-drug, monoculture (fraction); higher = more viable cancer cells
Conditions in all cases: coculture fibroblast: none (monoculture)
[1] = tested on: MDAMB436
Method: (§1)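 JC-1 labelled TNBC cells grown in monoculture (density kept equal with unlabelled cancer cells) in 384-well plates in FluoroBrite medium, treated with one of 42 anticancer drugs at 0.1, 1, 10 or 100 uM. JC-1 red fluorescence (mitochondrial integrity, surrogate of apoptotic death) was read by plate reader every 8 h for 72 h. Values are normalised to each well's pre-drug value, with background from alamethicin. The stock of one drug was tenfold lower, so its dose labels may be too high. Monoculture values are repeated alongside each fibroblast plate and are averaged here.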

[2] = tested on: MDAMB468
Method: as §1

[3] = tested on: MDAMB231
Method: as §1

[4] = tested on: BT20
Method: as §1

CC(C)(C#N)c1cc(Cn2cncn2)cc(C(C)(C)C#N)c1 [Anastrozole]
relative JC-1 red fluorescence
Conditions	8 h	16 h	24 h	32 h	40 h	48 h	56 h	64 h	72 h
[1], 0.1 µM	0.8598	0.719	0.732	0.68	0.666	0.65	0.652	0.65	0.648
[1], 1 µM	0.84	0.743	0.727	0.671	0.67	0.664	0.655	0.647	0.654
[1], 10 µM	0.8696	0.776	0.786	0.715	0.696	0.677	0.681	0.67	0.677
[1], 100 µM	0.8802	0.823	0.818	0.781	0.7584	0.7467	0.74	0.7247	0.72
[2], 0.1 µM	0.9035	0.808	0.746	0.665	0.602	0.578	0.531	0.502	0.486
[2], 1 µM	0.8904	0.805	0.76	0.706	0.682	0.67	0.639	0.616	0.608
[2], 10 µM	0.897	0.8211	0.758	0.679	0.631	0.604	0.569	0.549	0.535
[2], 100 µM	0.8872	0.835	0.788	0.725	0.72	0.695	0.682	0.651	0.636
[3], 0.1 µM	0.746	0.663	0.703	0.623	0.591	0.61	0.584	0.613	0.618
[3], 1 µM	0.7291	0.684	0.566	0.564	0.516	0.495	0.455	0.465	0.453
[3], 10 µM	0.763	0.7435	0.659	0.6663	0.641	0.64	0.601	0.613	0.608
[3], 100 µM	0.764	0.782	0.641	0.734	0.707	0.68	0.646	0.635	0.627
[4], 0.1 µM	0.937	0.848	0.753	0.683	0.634	0.598	0.56	0.54	0.525
[4], 1 µM	0.9306	0.8702	0.8053	0.7575	0.7329	0.7267	0.7018	0.6999	0.7048
[4], 10 µM	0.93962	0.865	0.78	0.7048	0.662	0.639	0.612	0.594	0.581
[4], 100 µM	0.935	0.912	0.848	0.807	0.769	0.766	0.737	0.73	0.719

CC(C)C[C@H](NC(=O)[C@@H](COC(C)(C)C)NC(=O)[C@H](Cc1ccc(O)cc1)NC(=O)[C@H](CO)NC(=O)[C@H](Cc1c[nH]c2ccccc12)NC(=O)[C@H](Cc1cnc[nH]1)NC(=O)[C@@H]1CCC(=O)N1)C(=O)N[C@@H](CCCNC(=N)N)C(=O)N1CCC[C@H]1C(=O)NNC(N)=O [Goserelin]
relative JC-1 red fluorescence
Conditions	8 h	16 h	24 h	32 h	40 h	48 h	56 h	64 h	72 h
[1], 0.1 µM	0.859	0.7123	0.718	0.681	0.659	0.648	0.642	0.639	0.64
[1], 1 µM	0.856	0.758	0.719	0.664	0.648	0.641	0.622	0.611	0.612
[1], 10 µM	0.882	0.78267	0.7876	0.7237	0.707	0.687	0.6824	0.6694	0.6709
[1], 100 µM	0.8919	0.7999	0.785	0.723	0.704	0.679	0.67	0.661	0.653
[2], 0.1 µM	0.8995	0.811	0.764	0.703	0.669	0.651	0.628	0.614	0.612
[2], 1 µM	0.8822	0.806	0.743	0.6871	0.66341	0.6454	0.622	0.6055	0.6
[2], 10 µM	0.9006	0.8373	0.783	0.719	0.665	0.649	0.614	0.59	0.577
[2], 100 µM	0.897	0.831	0.795	0.733	0.697	0.675	0.648	0.624	0.621
[3], 0.1 µM	0.79841	0.685	0.84741	0.719	0.7043	0.726	0.712	0.762	0.77
[3], 1 µM	0.7	0.692	0.611	0.558	0.518	0.498	0.467	0.484	0.478
[3], 10 µM	0.8	0.758	0.76	0.707	0.671	0.675	0.647	0.671	0.677
[3], 100 µM	0.762	0.767	0.674	0.664	0.618	0.604	0.574	0.586	0.567
[4], 0.1 µM	0.9666	0.8447	0.7859	0.7125	0.666	0.634	0.592	0.573	0.549
[4], 1 µM	0.932	0.8582	0.785	0.707	0.66	0.644	0.616	0.596	0.579
[4], 10 µM	0.945	0.853	0.771	0.696	0.647	0.605	0.566	0.545	0.528
[4], 100 µM	0.852	0.903	0.862	0.793	0.744	0.711	0.673	0.654	0.63
